Results are given in words; binding and its absence hold for the method and conditions named. Binding calls can cover weak binding; strength is not graded here.
Target: activated αllbβ3 purified from human platelets by RGD affinity chromatography (human)
Assay: RGD affinity chromatography of platelet octylglucoside extract

GRGDSPK (coupled to Sepharose 4B) [GRGDSPK-coupled Sepharose 4B] was tested, and the binding was “binds”.

Source: patent US20040002124A1
